To fix the notation:
T1: Sema3a protein (human (by the filing's definition of Sema3A at paragraph 83; the examples state no species)) (UniProt Q14563)
T1 sequence: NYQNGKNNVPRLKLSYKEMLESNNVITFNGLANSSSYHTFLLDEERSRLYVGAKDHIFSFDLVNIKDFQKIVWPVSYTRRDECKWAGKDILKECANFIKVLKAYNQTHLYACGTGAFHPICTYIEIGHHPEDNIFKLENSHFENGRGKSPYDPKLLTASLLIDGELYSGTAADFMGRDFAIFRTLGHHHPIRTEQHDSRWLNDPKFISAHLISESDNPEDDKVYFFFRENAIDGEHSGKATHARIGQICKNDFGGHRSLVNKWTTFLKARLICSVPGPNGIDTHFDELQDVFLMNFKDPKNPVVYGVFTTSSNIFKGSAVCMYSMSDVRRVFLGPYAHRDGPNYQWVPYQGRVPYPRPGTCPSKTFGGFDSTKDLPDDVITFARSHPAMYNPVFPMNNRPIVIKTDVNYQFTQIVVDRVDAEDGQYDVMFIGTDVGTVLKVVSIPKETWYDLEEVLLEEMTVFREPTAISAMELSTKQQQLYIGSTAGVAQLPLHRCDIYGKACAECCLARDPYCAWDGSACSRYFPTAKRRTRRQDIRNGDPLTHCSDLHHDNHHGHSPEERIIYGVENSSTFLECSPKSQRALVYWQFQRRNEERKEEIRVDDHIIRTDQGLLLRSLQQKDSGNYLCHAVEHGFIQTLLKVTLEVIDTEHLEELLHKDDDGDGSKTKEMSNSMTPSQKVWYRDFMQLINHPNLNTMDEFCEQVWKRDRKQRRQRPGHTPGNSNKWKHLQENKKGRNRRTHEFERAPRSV

Amino acid sequences for entries named in this document (tags omitted). Residues count along the entry.
UniProt P02769, residues 25-607: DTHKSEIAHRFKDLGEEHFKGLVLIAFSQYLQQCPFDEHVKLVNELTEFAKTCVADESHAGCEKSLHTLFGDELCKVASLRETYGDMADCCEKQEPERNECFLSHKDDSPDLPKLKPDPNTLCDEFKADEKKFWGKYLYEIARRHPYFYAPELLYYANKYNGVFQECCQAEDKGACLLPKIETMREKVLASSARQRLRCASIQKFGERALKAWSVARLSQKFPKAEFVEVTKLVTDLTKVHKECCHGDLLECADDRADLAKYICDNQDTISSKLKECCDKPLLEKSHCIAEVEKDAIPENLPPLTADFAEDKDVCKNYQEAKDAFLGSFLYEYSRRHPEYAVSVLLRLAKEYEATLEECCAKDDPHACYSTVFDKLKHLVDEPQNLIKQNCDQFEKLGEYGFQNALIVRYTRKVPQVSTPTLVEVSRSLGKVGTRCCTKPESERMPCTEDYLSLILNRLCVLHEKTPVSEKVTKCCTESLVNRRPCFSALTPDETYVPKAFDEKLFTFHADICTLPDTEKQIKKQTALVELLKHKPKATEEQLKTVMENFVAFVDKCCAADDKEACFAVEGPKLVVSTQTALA

B1: Fab L4D10 (Fab, V domains shown)
V domain 1: EVQLLESGGGLVQPGGSLRLSCAASGFTFRSYGMHWVRQAPGKGLEWVSSISPTTNYRSYADSLRGRFTISRDNSKNTLYLQMNSLRAEDTAVYYCARGHRDRSGSPVGYLDYWGQGTLVTVSS
V domain 2: QSVLTQPPSASGTPGQRVTISCTGSSSNIGRNSVNWYQQLPGTAPKLLIYSNHHRPSGVPDRFSGSKSGTSASLAISGLRSEDEADYYCSSYAGSNKYVFGTGTQVTVL
B2: Fab 3H8 (Fab, V domains shown)
VH: EVQLLESGGGLVQPGGSLRLSCAASGFTFSSYGMHWVRQAPGKGLEWVSYISSSGSHTSFADSVKGRFTISRDNSKNTLYLQMNSLRAEDTAVYYCARDGLFGIDYWGQGTLVTVSS
VL: DIVLTQSPGTLSLSPGERATLSCRASQSISSNLAWYQQKPGQAPRLLIYGASSRATGIPDRFSGSGSGTDFTLTISRLEPEDFAVYYCQQRDWPPFTFGQGTKLEIK
B3: Fab L4F8 (Fab, V domains shown)
VH: EVQLLESGGGLVQPGGSLRLSCAASGFTFTDYYMNWVRQAPGKGLEWVSRITNDGMSTAYADFVKGRFTISRDNSKNTLYLQMNSLRAEDTAVYYCARSPLEEGRITFRYWYFDLWGQGTLVTVSS
VL: DIVLTQSPGTLSLSPGERATLSCRASQSVSSNLAWYQQKPGQAPRLLIYDASNRATGIPDRFSGSGSGTDFTLTISRLEPEDFAVYYCQQGDSYPYTFGQGTKLEIK
B4: Fab L4D8 (Fab, V domains shown)
VH: EVQLLESGGGLVQPGGSLRLSCAASGFTFTDYYMSWVRQAPGKGLEWVSSISSSSSYIYYADSVKGRFTISRDNSKNTLYLQMNSLRAEDTAVYYCARGGDYDAFDIWGQGTLVTVSS
VL: QSVLTQPPSASGTPGQRVTISCSGRSSNVGSNSVNWYQQLPGTAPKLLIYTNDQRPSGVSDRFSGSKSGTSASLAISGLLSEDEADYYCSSYTSSSTRVFGTGTKLTVL
B5: Fab L4E6 (Fab, V domains shown)
VH: EVQLLESGGGLVQPGGSLRLSCAASGFTFSNFVMNWVRQAPGKGLEWVSRINTDGTSTNYADSVTGRFTISRDNSKNTLYLQMNSLRAEDTAVYYCARDYPLRRLMYYYYGMDVWGQGTLVTVSS
VL: DIVLTQSPGTLSLSPGERATLSCRASQTISSNLAWYQQKPGQAPRLLIYGASSRATGIPDRFSGSGSGTDFTLTISRLEPEDFAVYYCQQYSWSPRVYSFGQGTKLEIK
notes: C-terminal His tag on the Fd fragment
B6: Fab 3E2CorrG9 (Fab, V domains shown)
VH: EVQLLESGGGLVQPGGSLRLSCAASGFTFGDFAMSWVRQAPGKGLEWVSSISSNSSYIYYADSVKGRFTISRDNSKNTLYLQMNSLRAEDTAVYYCARGRVYGDFGKFDSWGQGTLVTVSS
VL: DIVLTQSPGTLSLSPGERATLSCTASQSVGRYLAWYQQKPGQAPRLLIYGASSRATGIPDRFSGSGSGTDFTLTISRLEPEDFAVYYCQQYGSSLTFGGGTKLDIK
B7: Fab 3G3 (Fab, V domains shown)
V domain 1: EVQLLESGGGLVQPGGSLRLSCAASGFTFNDYWMHWVRQAPGKGLEWVSALTGGGDTPWYPGSVKGRFTISRDNSKNTLYLQMNSLRAEDTAVYYCARVKVVPRSRETDAFDVWGQGTLVTVSS
V domain 2: QSVLTQPPSASGTPGQRVTISCTGGPPNIGNNAVFWYQQLPGKAPKLLIYELTKRPSGVPDRFSGSKSGTSASLAISGLRSEDEADYYCSSYTRVSTPVFGGGTQVTVL
B8: Fab 3A9CorrC6 (Fab, V domains shown)
VH: EVQLLESGGGLVQPGGSLRLSCAASGFTFSPYAMSWVRQAPGKGLEWVSVIFTSGTTNYADSVKGRFTISRDNSKNTLYLQMNSLRAEDTAVYYCARELRRPGDGVPAATSDYWGQGTLVTVSS
VL: QSVLTQPPSASGTPGQRVTISCSGSTSNIGRNYVCWYQQLPGKAPKLLIYANNNRPSGVPDRFSGSKSGTSASLAISGLRSEDEADYYCSSYTSSSTLVFGGGTQLTVL
B9: Fab L4G11 (Fab, V domains shown)
VH: EVQLLESGGGLVQPGGSLRLSCAASGFTVRNNYMSWVRQAPGKGLEWVSGLSGFGRGAHYSDSVKGRFTISRDNSKNTLYLQMNSLRAEDTAVYYCARGAVGYLQWFPDVWGQGTLVTVSS
VL: QSVLTQPPSASGTPGQRVTISCSGGRSNIGSNTVNWYQQLPGKAPKLLIYGNSNRPSGVPDRFSGSKSGTSASLAISGLRSEDEADYYCCSHARGDTLIFGVGTKLTVL
B10: Fab 3G1CorrC10 (Fab, V domains shown)
VH: EVQLLESGGGLVQPGGSLRLSCAASGFTFSNHAMSWVRQAPGKGLEWVSSISASGGSTYYADSVKGRFTISRDNSKNTLYLQMNSLRAEDTAVYYCARAESGYQLDYWGQGTLVTVSS
VL: DIVLTQSPGTLSLSPGERATLSCRASQSVSSSYLAWYQQKPGQAPRLLIYGVSNRATGIPDRFSGSGSGTDFTLTISRLEPEDFAVYYCQQSYSTPYTFGPGTKLDIK
B11: Fab 3A3 (Fab, V domains shown)
VH: EVQLLESGGGLVQPGGSLRLSCAASGFTFTSYDMDWVRQAPGKGLEWVSAINSNGDSTYYPDTVKDRFTISRDNSKNTLYLQMNSLRAEDTAVYYCARAQGQWLFHNWFDHWGQGTLVTVSS
VL: QSVLTQPPSASGTPGQRVTISCSGGNSNIGDHYVSWYQQLPGTAPKLLIYGDTHRPSGVPDRFSGSKSGTSASLAISGLRSEDEADYYCGTWDSSLSAGVFGGGTKVTVL
B12: Fab L4B8 (Fab, V domains shown)
VH: EVQLLESGGGLVQPGGSLRLPCAASGFTVGLYNINWVRQAPGKGLAWVSTISGSGLNTYYSDPVKGRFTISRDNSKNTLYLQMNSLRAEDTAVYYCARDEDTYAFNWGQGTLVTVSS
VL: DIVLTQSPGTLSLSPGERATLSCRASQSVSSSYLAWYQQKPGQAPRLLIYGASTRAPGIPDRFSGSGSGTDFTLTISRLEPEDFAVYYCHQRGSGDTFGPGTKVEIK
notes: as for B5
B13: Fab 3C7 (Fab, V domains shown)
V domain 1: EVQLLESGGGLVQPGGSLRLSCAASGFTVSSYWMHWVRQAPGKGLEWVSSTTGSGGSTYYADSVKGRFTISRDNSKNTLYLQMNSLRAEDTAVYYCARGTSGWYGIDYWGQGTLVTVSS
V domain 2: QSVLTQPPSASGTPGQRVTISCSGSSSNIGNNHVSWYQQLPGTAPKLLIYCNNNRPSGVPDRFSGSKSGTSASLAISGLRSEDEADYYCQVWDSSRDQGVFGGGTQVTVL
B14: Fab 3B7CorrC3 (Fab, V domains shown)
VH: EVQLLESGGGLVQPGGSLRLSCAASGFTFTDYYMSWVRQAPGKRLEWVSAISDSGGMTYYADSVRGRFTISRDNSKNTLYLQMNSLKAEDTAVYYCAREPLGDHGDLRPDFDYWGQGTLVTVSS
VL: QSVLTQPPSASGTPGQRVTISCSGGSSNIGSQTVLWYQQLPGTAPKLLIYDNNKRPSGVPDRFSGSKSGTSASLAISGLRSEDEADYYCASWDDSLSGGVFGGGTKVTVL

Results are given in words; binding and its absence hold for the method and conditions named. Some results given as binding are weak or reduced against the parent protein; the word gives no strength.

For the first test, the target named is T1, Sema3a protein (human (by the filing's definition of Sema3A at paragraph 83; the examples state no species)). The test is described as follows: soluble Fabs evaluated by ELISA on Sema3a. Background: In an ELISA, binding on a coated surface is turned into a signal by an enzyme label.
With B1, the binding result is “binds”.

Turning to B2, the binding entry is “binds”.

Consider B3, for which the binding result is “binds”. On the same count and under the same terms, the value for B4 was “binds”; that for B5 was “binds”. As for B6, the binding entry is reported as “binds”. Take B7: the binding result was “binds”. For the molecule B8, the binding result is “binds”. B9: the binding entry is “binds”. The same measure, in the same setting: the value for B10 was “binds”; that for B11 was “binds”. As for B12, the binding result is on record as “binds”. In the case of B13, the binding result was “binds”.

On to B14, for which the binding result is given as “binds”.

In another test the target is BSA (bovine) (UniProt P02769). The test is described as follows: ELISA on coated control antigen, Fab in 2 fold dilutions from 1 µM, detection with HRP goat anti human H+L.
With B5, the binding result was “no binding (tested: 1000 nM)”. In the case of B12, the binding entry is listed as “no binding (tested: 1000 nM)”.

For the origin of these results see US20220251193A1 (RAMOT AT TEL AVIV UNIVERSITY, published 2022).
